No constants are given. Whether binding was seen depends on the method and setting. For some assays here: Binding seen in cells or lysates may run through a third protein. Where a sequence is shown, tags or fusion partners need not be part of it. Some entries that bind do so weakly or less than the wild type.
T1: YFP-Ocln (occludin N-terminally fused with yellow fluorescent protein) (UniProt Q61146)
T1 sequence: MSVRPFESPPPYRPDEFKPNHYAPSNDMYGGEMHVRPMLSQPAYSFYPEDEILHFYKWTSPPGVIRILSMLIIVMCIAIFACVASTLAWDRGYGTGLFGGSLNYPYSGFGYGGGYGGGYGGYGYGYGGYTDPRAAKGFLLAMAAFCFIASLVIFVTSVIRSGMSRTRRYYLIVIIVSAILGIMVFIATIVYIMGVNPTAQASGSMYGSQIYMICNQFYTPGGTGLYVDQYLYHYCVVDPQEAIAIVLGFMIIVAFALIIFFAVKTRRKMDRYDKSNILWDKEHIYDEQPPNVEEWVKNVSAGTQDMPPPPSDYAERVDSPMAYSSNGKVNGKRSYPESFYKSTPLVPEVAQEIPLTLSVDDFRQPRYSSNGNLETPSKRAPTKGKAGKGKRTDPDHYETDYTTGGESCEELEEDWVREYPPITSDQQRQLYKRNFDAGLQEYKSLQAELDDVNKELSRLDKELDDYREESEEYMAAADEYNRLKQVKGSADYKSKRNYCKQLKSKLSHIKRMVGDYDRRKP

T2: EYFP- or ECFP-tagged human CLDN19a (human) (UniProt Q8N6F1)
T2 sequence: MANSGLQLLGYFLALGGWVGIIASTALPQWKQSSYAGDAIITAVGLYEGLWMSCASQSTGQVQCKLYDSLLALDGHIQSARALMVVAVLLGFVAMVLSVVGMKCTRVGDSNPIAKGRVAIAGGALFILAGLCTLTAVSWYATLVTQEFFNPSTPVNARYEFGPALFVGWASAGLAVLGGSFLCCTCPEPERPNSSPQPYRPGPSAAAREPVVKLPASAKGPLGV

T3: EYFP- or ECFP-tagged human CLDN19b (human) (UniProt Q8N6F1)
T3 sequence: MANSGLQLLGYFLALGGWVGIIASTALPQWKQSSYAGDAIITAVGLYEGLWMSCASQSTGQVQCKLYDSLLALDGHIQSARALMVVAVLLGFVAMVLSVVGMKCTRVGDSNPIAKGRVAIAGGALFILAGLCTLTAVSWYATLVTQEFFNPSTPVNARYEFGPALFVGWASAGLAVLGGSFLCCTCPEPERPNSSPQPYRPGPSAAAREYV

T4: EYFP- or ECFP-tagged human PMP22 (human) (UniProt Q01453)
T4 sequence: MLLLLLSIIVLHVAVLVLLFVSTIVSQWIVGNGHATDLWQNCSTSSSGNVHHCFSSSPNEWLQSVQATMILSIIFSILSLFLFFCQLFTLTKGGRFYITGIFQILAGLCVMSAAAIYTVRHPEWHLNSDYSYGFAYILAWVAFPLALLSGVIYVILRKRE


Experiments:
[1] = molecular target: T1, YFP-Ocln (occludin N-terminally fused with yellow fluorescent protein); test: enrichment at cell-cell contacts
[2] = molecular target: TRQ-Cldn12 (claudin-12 N-terminally fused with pmTurquoise2) (UniProt Q9ET43); test: enrichment at cell-cell contacts
[3] = molecular target: T2, EYFP- or ECFP-tagged human CLDN19a (human); test: FRET or BRET
[4] = molecular target: T3, EYFP- or ECFP-tagged human CLDN19b (human); test: FRET or BRET
[5] = molecular target: T4, EYFP- or ECFP-tagged human PMP22 (human); test: FRET or BRET

Binder | binding [1] | binding [2] | binding [3] | binding [4] | binding [5]
TRQ-Cldn12 (claudin-12 N-terminally fused with pmTurquoise2) (protein, UniProt Q9ET43 1-244) MGCRDVHAATVLSFLCGIASVAGLFAGTLLPNWRKLRLITFNRNEKNLTIYTGLWVKCARYDGSSDCLMYDRTWYLSVDQLDLRVLQFALPLSIVIAMGALLLCLIGMCNTAFNSSVPNIKLAKCLVNSAGCHLVAGLLFFLAGTVSLSPSIWAIFYNSHLNRKFEPVFTFDYAVFVTIASSGGLFMTALLLFVWYCACKSLSSPFWQPLYSHAPGMHTYSQPYSSRSRLSAIEIDIPVVSHST | binds weakly | no binding | – | – | –
EYFP- or ECFP-tagged murine Cldn12 (protein, UniProt Q9ET43 1-244) MGCRDVHAATVLSFLCGIASVAGLFAGTLLPNWRKLRLITFNRNEKNLTIYTGLWVKCARYDGSSDCLMYDRTWYLSVDQLDLRVLQFALPLSIVIAMGALLLCLIGMCNTAFNSSVPNIKLAKCLVNSAGCHLVAGLLFFLAGTVSLSPSIWAIFYNSHLNRKFEPVFTFDYAVFVTIASSGGLFMTALLLFVWYCACKSLSSPFWQPLYSHAPGMHTYSQPYSSRSRLSAIEIDIPVVSHST | – | – | no binding | no binding | no binding

From doi:10.1101/768267
